Assay [1] has as its target Pitx2 (endogenous, LS-8 oral epithelial cells) (mouse (endogenous in LS-8)) (UniProt P97474). The assay is described as follows: co-IP; endogenous proteins of LS-8 whole cell lysate; precleared; immunoprecipitation with rabbit Pitx2 antibody and protein A/G-agarose at 4°C overnight; Western blot with anti-Dact2; normal rabbit IgG as control. (A western blot detects proteins with antibodies after separation by electrophoresis.)

A further assay deals with GST-PITX2A-NΔ38. In words: pull-down; GST-PITX2A fusion proteins (10–30 μg) immobilized on Glutathione-Sepharose beads; purified Dact2 added; 20 mM HEPES pH 7.5, 5% glycerol, 50 mM NaCl, 1 mM EDTA, 1 mM DTT, 1% milk, 400 μg/ml ethidium bromide; 30 min at 4°C; Dact2 detected by immunoblot; both purified.
For assay [2], the target named is GST-PITX2A-FL (full length) (UniProt Q99697). The assay is described as above.
For assay [3], the target named is GST-PITX2A-HD (homeodomain). Described as above.

No constants are given. Whether binding was seen depends on the method and setting. Binding calls can cover weak binding; strength is not graded here. For some of these results: In cells and extracts the contact can be indirect.

B1: Dact2 (endogenous, LS-8 oral epithelial cells) (protein, UniProt Q7TN08 1-757)
chain: MWAPSGQGPAGWDRRRVGARLRAALAGLQELQGLRATQQARVRGALGLHPAPGPRGQELRLEAALTALREQLSRLRRQDAGLKTHLDQLDQQISELQLDVSRSSCEALDSDSRPSSGFYELSDAGSCSLSTSCASVCSDRLSPSLGSWLPVFQPSKSRSGIGDWRPRSADETTVPAWSPQLTEDSRLLHGAEGTGRLTGMFRPRPVSTGDLERVLPADVGLQRAGTDAAHLLGQGIEIPAHALDPTYQRDLVARGGQEVYPYPSPLHAVALQSPLFALPKEAPCFDICSPPQEPPLVPVDENRTQPEPIRELGSAEAYIHRLLHLRGQELPLRDVGQEQGGDTAAFPPKPCGQRSESTCQLEKQACGADRGGLKLGRGAAKDSLKQHGPVSLVGAEPLSSPLKEETIPWNPCVHGDNTVGSSPCSQAQQPLNDCGQGPVLSPSRVLGTESPPLAPEPFAYTSCTTGETSPVKLRMGFSQNKAVKVRRRVSEKVPRLGKQLPPQPERQRVTERDPSRPHQGGLSRRPTLAREPPGRSCSESTLYPVPFLVPVVVAQRESYPTSPQAFFPMEAALLSSAARRKQRRWQSTMEISAKAGSVSQPGPSMGLPRSPAKRGSGPRAQSRPTLARQDACARCESDPSEHSADCTSLYHSTIAETSEDEEASDHTANRFGDESSSNDSEGCFRGSRRRLAIGSAEAGQGGWAWPRVPPQQPSRAPGNTRPPLPPVPKLCRIKASKALKKKIRRFQPAALKVMTMV
Consider B1, for which the binding entry in assay [1] is reported as “binds”.

B2: Dact2, purified bacterially expressed protein (natural protein, mouse, UniProt Q7TN08 1-757, looked up)
chain: B1 chain
As for B2, the binding entry (in the assay with GST-PITX2A-NΔ38; in assay [2]; in assay [3]) was “binds” in each case.

The record behind these values is article PMC3551926, “Dact2 Represses PITX2 Transcriptional Activation and Cell Proliferation through Wnt/beta-Catenin Signaling during Odontogenesis” (PLoS ONE, 2013).
